Laboratory results taken from the supplement of paper PMC9744312.
Values joined by “and” are separate entries in the source; they are usually repeats but may differ in a detail not shown here. Equal values may be shown once. Where a name gives a salt, the structure may show the parent alone. This is one part of the list. Single values of this set are uncertain.

Each compound was assayed on Peyronie's disease tunica albuginea primary fibroblasts (assay: inhibition of TGF-beta1-induced alpha-SMA expression (myofibroblast transformation), relative to TGF-beta1-only and untreated controls; higher = stronger inhibition of myofibroblast transformation). Conditions: 10 µM; TGF-beta1 10 ng/mL; 72 h.

Structure (SMILES) | inhibition of TGF-beta1-induced alpha-SMA expression
N=C(N)NC(=N)NCCc1ccccc1 [Phenformin HCl] | 17.5%
NCCc1c[nH]cn1 [Histamine] | 2.07%
NCCc1c[nH]cn1 [Histamine 2HCl] | 9.1%
NCCc1c[nH]cn1 [Histamine Phosphate] | 8.5%
OC(Cn1cncn1)(Cn1cncn1)c1ccc(F)cc1F [Fluconazole] | -3.18%
C[C@@H](NCCCc1cccc(C(F)(F)F)c1)c1cccc2ccccc12 [Cinacalcet HCl] | 25.9%
CC(=O)Nc1cccc(-n2c(=O)n(C3CC3)c(=O)c3c(Nc4ccc(I)cc4F)n(C)c(=O)c(C)c32)c1 | -138%
N=C1CCCN1Cc1[nH]c(=O)[nH]c(=O)c1Cl [Tipiracil hydrochloride] | 7.79%
Nc1[nH]cnc2ncnc1-2 [Adenine HCl] | 80.5%
Nc1[nH]cnc2ncnc1-2 [Adenine sulfate] | 9.16%
C[C@@H](O)[C@H]1C(=O)N2C(C(=O)O)=C([C@H]3CCCO3)S[C@H]12 [Faropenem Sodium] | 30.3%
OCCN1CCN(CC/C=C2/c3ccccc3Sc3ccc(C(F)(F)F)cc32)CC1 [Flupenthixol dihydrochloride] | 74.7%
Cc1cn[nH]c1 [Fomepizole] | 32.4%
Cc1ccc(C(=O)c2ccc(CC(=O)O)n2C)cc1 [Tolmetin Sodium] | 48.6%
Cc1ccc(C(=O)c2ccc(CC(=O)O)n2C)cc1 [Tolmetin] | 76.9%
FC(F)(F)C(Cl)Br (centres undefined) [Halothane] | 28.2%
O=C(O)CCCCCCCC(=O)O [Azelaic acid] | -27.3%
CC(=O)OCC(=O)[C@@]1(O)CC[C@H]2[C@@H]3CCC4=CC(=O)CC[C@]4(C)[C@@]3(F)[C@@H](O)C[C@@]21C [Fludrocortisone acetate] | 54.7%
NS(=O)(=O)c1cc(C2(O)NC(=O)c3ccccc32)ccc1Cl (centres undefined) [Chlorthalidone] | 19.4%
CC(=O)OCC(=O)[C@@]1(O)CC[C@H]2[C@@H]3CCC4=CC(=O)CC[C@]4(C)[C@H]3[C@@H](O)C[C@@]21C [Hydrocortisone acetate] | 48.2%
CC(C)c1c(C(=O)Nc2ccccc2)c(-c2ccccc2)c(-c2ccc(F)cc2)n1CC[C@@H](O)C[C@@H](O)CC(=O)O [Atorvastatin Calcium] | > 100%
Cc1ncc(C[n+]2csc(CCO)c2C)c(N)n1 [Thiamine HCl (Vitamin B1)] | -5.49%
CCN[C@H]1CN(CCCOC)S(=O)(=O)c2sc(S(N)(=O)=O)cc21 [Brinzolamide] | 9.15%
CC(=O)Oc1ccccc1C(=O)Nc1ncc([N+](=O)[O-])s1 [Nitazoxanide] | > 100%
CCCCOCCOCCOCc1cc2c(cc1CCC)OCO2 [Piperonyl butoxide] | 31.1%
CCN(CC)CCOC(=O)C1(C2CCCCC2)CCCCC1 [Dicyclomine HCl] | 7.53%
CCCCC(O)c1ccccc1 (centres undefined) [Fenipentol] | 17.6%

No new results follow: entries from further up.
Structure (SMILES) | inhibition of TGF-beta1-induced alpha-SMA expression
CC(C)c1c(C(=O)Nc2ccccc2)c(-c2ccccc2)c(-c2ccc(F)cc2)n1CC[C@@H](O)C[C@@H](O)CC(=O)O [Atorvastatin Calcium] | > 100%
Cc1ncc(C[n+]2csc(CCO)c2C)c(N)n1 [Thiamine HCl (Vitamin B1)] | -5.49%
CCN[C@H]1CN(CCCOC)S(=O)(=O)c2sc(S(N)(=O)=O)cc21 [Brinzolamide] | 9.15%
CC(=O)Oc1ccccc1C(=O)Nc1ncc([N+](=O)[O-])s1 [Nitazoxanide] | > 100%
CCCCOCCOCCOCc1cc2c(cc1CCC)OCO2 [Piperonyl butoxide] | 31.1%

The list continues:

Structure (SMILES) | inhibition of TGF-beta1-induced alpha-SMA expression
Nc1c(CC(=O)O)cccc1C(=O)c1ccccc1 [Amfenac Sodium Monohydrate] | 30.2%
O=C1c2c(O)cccc2Cc2cccc(O)c21 [Dithranol] | 21.7%
Cc1nnc(C(=O)NC(C)(C)c2nc(C(=O)NCc3ccc(F)cc3)c(O)c(=O)n2C)o1 [Raltegravir (MK-0518)] | 29.3%
Cc1nnc(C(=O)NC(C)(C)c2nc(C(=O)NCc3ccc(F)cc3)c(O)c(=O)n2C)o1 [Raltegravir potassium] | -9.29%
O=C(NC[C@H]1CN(c2ccc(N3CCOCC3=O)cc2)C(=O)O1)c1ccc(Cl)s1 [Rivaroxaban] | 7.73%
C[C@@H]1C[C@H]2[C@@H]3C[C@H](F)C4=CC(=O)C=C[C@]4(C)[C@@]3(F)[C@@H](O)C[C@]2(C)[C@@]1(O)C(=O)CO [Flumethasone] | 50.9%
O=C(O)c1cn(-c2ccc(F)cc2)c2cc(N3CCNCC3)c(F)cc2c1=O [Sarafloxacin HCl] | 2.55%
N[C@@H](CCC(=O)O)C(=O)[O-].[Na+] [L-Glutamic acid monosodium salt] | 10.1%
C[N+]1(C)CCC(OC(=O)C(O)(c2ccccc2)C2CCCC2)C1 (centres undefined) [Glycopyrrolate] | 14.5%
Clc1ccc(CCC(Cn2ccnc2)Sc2c(Cl)cccc2Cl)cc1 (centres undefined) [Butoconazole] | -5.84%
Clc1ccc(CCC(Cn2ccnc2)Sc2c(Cl)cccc2Cl)cc1 (centres undefined) [Butoconazole nitrate] | 5.26%
N#Cc1ccc(C(c2ccc(C#N)cc2)n2cncn2)cc1 [Letrozole] | 8.71%
NCc1ccccc1CC(=O)N[C@@H]1C(=O)N2C(C(=O)O)=C(CSc3nnnn3CC(=O)O)CS[C@H]12 [Ceforanide] | 33.5%
N=C(NCCCCCCNC(=N)NC(=N)Nc1ccc(Cl)cc1)NC(=N)Nc1ccc(Cl)cc1 [Chlorhexidine] | > 100%
COc1c2occc2cc2ccc(=O)oc12 [Methoxsalen] | 12.7%
CN1CCN(C2=Nc3ccccc3Oc3ccc(Cl)cc32)CC1 [Loxapine Succinate] | -8.62%
CCOC(=O)[C@@H](N)Cc1ccc(-c2cc(O[C@H](c3ccc(Cl)cc3-n3ccc(C)n3)C(F)(F)F)nc(N)n2)cc1 [Telotristat Etiprate (LX 1606 Hippurate)] | 10%
C1CNCCN1 [Piperazine] | 6.1%
Nc1cc(C(Cl)=C(Cl)Cl)c(S(N)(=O)=O)cc1S(N)(=O)=O [Clorsulon] | -1.64%
CC[C@H](C)C(=O)O[C@H]1CCC=C2C=C[C@H](C)[C@H](CC[C@@H]3C[C@@H](O)CC(=O)O3)[C@H]21 [Mevastatin] | > 100%
C[C@H](CCC(=O)O)[C@H]1CC[C@H]2[C@@H]3[C@H](O)C[C@@H]4C[C@H](O)CC[C@]4(C)[C@H]3CC[C@]12C [Chenodeoxycholic Acid] | 21%
NNc1nncc2ccccc12 [Hydralazine HCl] | 11.8%
CC(=O)OCC(CCn1cnc2cnc(N)nc21)COC(C)=O [Famciclovir] | -9.48%
CN1CCN(CCCN2c3ccccc3Sc3ccc(Cl)cc32)CC1 [Prochlorperazine Dimaleate] | 92.3%
CN1CCN(CCCN2c3ccccc3Sc3ccc(Cl)cc32)CC1 [Prochlorperazine dimaleate salt] | 59.3%
Cc1nc(=O)c2cc(CN(C)c3ccc(C(=O)N[C@@H](CCC(=O)O)C(=O)O)s3)ccc2[nH]1 [Raltitrexed] | 42%
CC(/C=C1\SC(=S)N(CC(=O)O)C1=O)=C\c1ccccc1 [Epalrestat] | 4.15%

Structure (SMILES) | inhibition of TGF-beta1-induced alpha-SMA expression
CC(=O)[C@]1(O)Cc2c(O)c3c(c(O)c2[C@@H](O[C@H]2C[C@H](N)[C@H](O)[C@H](C)O2)C1)C(=O)c1ccccc1C3=O [Idarubicin HCl] | > 100%
O=c1oc2ccccc2c(O)c1Cc1c(O)c2ccccc2oc1=O [Dicoumarol] | 27%
COc1ccc([C@]2(C#N)CC[C@@H](C(=O)O)CC2)cc1OC1CCCC1 [Cilomilast] | 41.1%
COCC[n+]1c2c(n(Cc3cnccn3)c1C)C(=O)c1ccccc1C2=O [YM155 (Sepantronium Bromide)] | > 100%
C[C@@H]1CCN(C(=O)CC#N)C[C@@H]1N(C)c1ncnc2[nH]ccc12 | -18.1% and -29.3%
O=c1[nH]c(=O)n(C2CCCO2)cc1F (centres undefined) | -16.9%
CN(C)c1nc(N(C)C)nc(N(C)C)n1 [Altretamine] | 40.2%
CCn1c(=O)c(-c2cc[nH]n2)cc2c(C)nc(N)nc21 | > 100%
COc1cc2c(Oc3ccc4[nH]c(C)cc4c3F)ncnc2cc1OCCCN1CCCC1 [Cediranib (AZD2171)] | 86%
O=C(O)c1cc(-c2ccccc2)nc2ccccc12 [Cinchophen] | > 100%
CC(=O)O[C@]1(C(C)=O)CC[C@H]2[C@@H]3C[C@H](C)C4=CC(=O)CC[C@]4(C)[C@H]3CC[C@@]21C [Medroxyprogesterone acetate] | 62.8%
C[C@H]1CNCCCN1S(=O)(=O)c1cccc2cncc(F)c12 [Ripasudil (K-115) hydrochloride dihydrate] | 92.8%
C[C@H]1C[C@@H]2[C@H]([C@@H](O)C[C@@]3(C)[C@H]2CC[C@]3(O)C(=O)CO)[C@@]2(C)C=CC(=O)C=C12 [Methylprednisolone] | 39%
CCCNCC(O)COc1ccccc1C(=O)CCc1ccccc1 (centres undefined) [Propafenone HCl] | 29.8%
NC(=O)C(c1ccccc1)(c1ccccc1)[C@@H]1CCN(CCc2ccc3c(c2)CCO3)C1 [Darifenacin HBr] | 1.62%
COc1ccccc1OCC(O)CN1CCN(CC(=O)Nc2c(C)cccc2C)CC1 (centres undefined) [Ranolazine] | 10.4%
COc1ccccc1OCC(O)CN1CCN(CC(=O)Nc2c(C)cccc2C)CC1 (centres undefined) [Ranolazine 2HCl] | 26.6%
CNS(=O)(=O)C[C@H]1CC[C@H](N(C)c2[nH]cnc3nccc2-3)CC1 | -146%
COc1cc([C@@H]2c3cc4c(cc3[C@@H](O[C@@H]3O[C@@H]5CO[C@@H](C)O[C@H]5[C@H](O)[C@H]3O)[C@H]3COC(=O)[C@H]23)OCO4)cc(OC)c1O [Etoposide] | -33.1%
COc1ccc(C2CNC(=O)C2)cc1OC1CCCC1 (centres undefined) [Rolipram] | 53.3%
Cc1c(O)c(=O)ccn1C [Deferiprone] | 9.95%
O=S(=O)(O)c1cc(O)ccc1O [Ethamsylate] | 5.64%
c1ccc([C@H]2CN3CCSC3=N2)cc1 [Levamisole hydrochloride] | 45.8%
CCC(=O)O[C@]1(C(=O)CCl)[C@@H](C)C[C@H]2[C@@H]3CCC4=CC(=O)C=C[C@]4(C)[C@@]3(F)[C@@H](O)C[C@@]21C [Clobetasol propionate] | 37.9%
O=C1OCCN1/N=C/c1ccc([N+](=O)[O-])o1 [Furazolidone] | -4.53%
